Not every detail of the peptide structures is certain; ends, links or a residue may be inferred. Where a SMILES comes first, the peptide text is derived from it.
Test system: GL261/vIII
Assay: Intracranial glioma model GL261/vIII, peptide vaccination
Assay type: in vivo
Text: Y6-pepvIII is effective in an intracranial glioma model. Because of its significant effect on survival in the EGFRvIII subcutaneous tumor model, we selected Y6-pepvIII for in-depth analysis. First, we tested this vaccine in a model that more accurately represented human gliomas. We utilized the commonly employed murine glioma 261 (GL261) intracranial tumor model (30) which was transfected with the EGFRvIII cDNA to yield a line with high expression, GL261/vIII. We explored intracranial injection protocols that would lead to reproducible survival curves and identified conditions where 90% of the animals survived 23-29 days. To compare vaccine efficacy, mice received either Montanide (ISA51) alone, 100 ug of KLH with Montanide, 100 ug of KLH conjugated to pepvIII or Y6-pepvIII in Montanide following the vaccination schedule outlined in FIG. 2A. While KLH treatment had no measurable impact on survival, vaccination with the pepvIII induced a modest but statistically significant 23% increase in survival vs. control mice (FIG. 2B; median survival: Control=26.0 days, KLH=27 days, pepvIII=32 days, p<0.0001).
Intracranial model. Six to 8-week old C57BL/6J mice (Jackson Laboratories, Bar Harbor, ME), had gliomas established by stereotactically injecting 10,000 GL261/vIII […] CT2A/vIII cells into the left striatum (2 mm posterior to the coronal suture and 2 mm lateral to the sagittal suture) on day 0 of the experimental process as previously described. Briefly, mice were anesthetized with isoflurane (4%) and placed in the stereotactic frame. An incision was made, and a burr hole was drilled over the striatum. GL261/vIII or CT2A/vIII cells were injected at the above stated coordinates using a Hamilton Microsyringe controlled by an automated micro-pump injection system. Mice were assigned to treatment groups randomly and tumor progression was monitored by bioluminescent signal as detected by the IVIS imaging system (Caliper Life Sciences, Hopkinton, MA).
For survival experiments, each treatment group consisted of 6 to 15 mice. […] All peptide vaccines were KLH conjugated, conjugated peptides were also emulsified at a 1:1 ratio with Montanide.
Experimental mice received 100 ug of emulsified peptide conjugate via subcutaneous injection on day 0 (after tumor cell implantation), 7 and 14 post tumor cell injection. Mice that survived beyond day 21 were imaged once again to assess tumor burden. For anti-PD-1 combination therapies, 100 ug of Montanide emulsified peptide-conjugate was administered via subcutaneous injection at day 0, 7 and 14, and 200 ug of anti-PD-1 antibody (Clone: RMP1-14, BioXcell) was administered via intraperitoneal injection at day 10, 14 and 18 (48). […]

CC(C)C[C@H](N)C(=O)N[C@@H](CCC(=O)O)C(=O)N[C@@H](CCC(=O)O)C(=O)N[C@@H](CCCCN)C(=O)N[C@@H](CCCCN)C(=O)N[C@@H](Cc1ccc(O)cc1)C(=O)N[C@@H](CC(N)=O)C(=O)N[C@@H](Cc1ccc(O)cc1)C(=O)N[C@H](C(=O)N[C@H](C(=O)N[C@H](C(=O)N[C@@H](CC(=O)O)C(=O)N[C@@H](Cc1c[nH]cn1)C(=O)O)[C@@H](C)O)C(C)C)C(C)C [Y6-pepvIII] (H-LEEKKYNYVVTDH-OH)
effect on survival (CD4+ or CD8+ T cells depleted prior to vaccination): no effect on survival
median survival (GL261/vIII intracranial, peptide vaccination alone): 42 days
median survival (GL261/vIII intracranial, vaccination combined with anti-PD-1 therapy): 55 days
increase in survival vs. pepvIII vaccinated mice (median survival) (GL261/vIII intracranial, vs. pepvIII vaccinated mice): 31%

From US20240066115A1, “DETERMINATION AND USES OF CD8+ T CELL EPITOPES” (priority 2021, published 2024)
